# Reference: patent EP3165222A1, “USE OF PHTHALIDE COMPOUND” (Everfront Biotech Inc., priority 2014, dated 2016)
# At least one read-out could not be matched to a standard name with certainty.
# Test system: zebrafish
# Assay: Safe dose test (toxicity of BP to zebrafish, survival rate)
# Assay type: in vivo
# Conditions: concluded from the 48 hour survival rates
# Protocol: In this experiment, the zebrafishes that were used as the animal models in the experimental group were Tg (HuC:GFP), which is characterized by its primary sensory neurons (Rohon-Beard cells) that can produce fluorescence. The zebrafishes used in the control group were wild type zebrafishes. All of the zebrafishes were provided by TZCAS (Taiwan Zebrafish Core Facility at Academia Sinica, Taiwan) and TZCF (Taiwan Zebrafish Core Facility, Taiwan). First, the toxicity of BP to zebrafish was tested by injecting different dose of BP to zebrafishes. The zebrafishes were then kept at 28.5°C. After 48 hours, the survival rate of the zebrafishes was observed.
structure (smiles),measurement,value
"CCCC=C1OC(=O)c2ccccc21 [BP, n-butylidenephthalide]",safe dose for zebrafish,lower than 250 mg/kg
